Test [1] addresses T1, HYPONASTIC LEAVES1 (HYL1), full-length, yeast two-hybrid fusion (Arabidopsis thaliana), O04492.
T1 chain: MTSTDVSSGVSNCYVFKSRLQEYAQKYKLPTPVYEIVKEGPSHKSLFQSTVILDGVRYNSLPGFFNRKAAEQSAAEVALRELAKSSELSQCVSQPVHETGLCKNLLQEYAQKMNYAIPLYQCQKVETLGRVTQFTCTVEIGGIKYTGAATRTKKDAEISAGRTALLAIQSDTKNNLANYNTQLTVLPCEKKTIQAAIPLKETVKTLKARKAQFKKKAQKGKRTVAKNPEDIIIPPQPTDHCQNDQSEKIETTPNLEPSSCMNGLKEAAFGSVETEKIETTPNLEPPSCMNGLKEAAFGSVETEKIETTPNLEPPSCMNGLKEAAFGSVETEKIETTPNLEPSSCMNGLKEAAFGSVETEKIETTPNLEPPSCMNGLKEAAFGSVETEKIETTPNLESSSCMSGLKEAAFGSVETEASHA
Description: two-hybrid; library screen: pGBKT7 bait in Y2H Gold mated with the pistil library; selection on media lacking -Leu-Trp-Ade+3AT. To be noted: remark: other sources report otherwise.

The target in test [2] is T1, HYPONASTIC LEAVES1 (HYL1), full-length, …. Description: two-hybrid; pGBKT7 (GAL4 DNA binding domain) and pGADT7 (activation domain) fusions cotransformed into yeast AH109; growth on SD/-Ade/-His/-Leu/-Trp. As to conditions: remark: other sources report otherwise.
Test [3] concerns the target HYL1^L166E, BiFC fusion (Arabidopsis thaliana) (UniProt O04492). Description: split reporter; BiFC: cYFP-tagged and nYFP-tagged constructs cotransformed into Arabidopsis protoplasts, 22.5°C in darkness for 12 h, confocal microscopy.
In test [4] the target is T2, HYL1^L165E, BiFC fusion (Arabidopsis thaliana) (UniProt O04492).
T2 sequence: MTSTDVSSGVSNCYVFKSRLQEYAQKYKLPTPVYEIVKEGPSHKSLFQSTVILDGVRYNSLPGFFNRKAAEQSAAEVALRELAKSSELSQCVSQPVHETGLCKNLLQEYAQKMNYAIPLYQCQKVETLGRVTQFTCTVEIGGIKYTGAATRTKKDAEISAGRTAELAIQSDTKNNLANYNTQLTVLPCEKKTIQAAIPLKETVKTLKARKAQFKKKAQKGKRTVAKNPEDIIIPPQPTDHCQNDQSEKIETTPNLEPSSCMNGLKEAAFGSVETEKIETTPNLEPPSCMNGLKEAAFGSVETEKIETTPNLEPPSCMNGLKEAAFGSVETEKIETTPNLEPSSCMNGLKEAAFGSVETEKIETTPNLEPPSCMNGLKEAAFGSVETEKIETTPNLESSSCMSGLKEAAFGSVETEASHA
Described as above.

Test [5] concerns the target T3, HYL1^G147E, BiFC fusion (Arabidopsis thaliana) (UniProt O04492).
T3 sequence: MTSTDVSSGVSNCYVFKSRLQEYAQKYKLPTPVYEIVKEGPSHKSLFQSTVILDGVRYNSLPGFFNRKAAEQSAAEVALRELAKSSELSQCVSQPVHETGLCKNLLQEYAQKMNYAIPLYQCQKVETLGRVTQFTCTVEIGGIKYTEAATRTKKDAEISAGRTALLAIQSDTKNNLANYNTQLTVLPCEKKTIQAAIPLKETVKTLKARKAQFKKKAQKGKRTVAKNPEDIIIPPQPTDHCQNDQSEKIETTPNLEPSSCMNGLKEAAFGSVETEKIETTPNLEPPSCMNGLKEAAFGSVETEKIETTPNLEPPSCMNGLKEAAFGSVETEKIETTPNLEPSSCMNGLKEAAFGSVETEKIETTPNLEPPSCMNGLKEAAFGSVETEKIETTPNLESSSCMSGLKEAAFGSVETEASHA
Described as above.

The target of test [6] is T4, HYL1 R151E, BiFC fusion (Arabidopsis thaliana) (UniProt O04492).
T4 sequence: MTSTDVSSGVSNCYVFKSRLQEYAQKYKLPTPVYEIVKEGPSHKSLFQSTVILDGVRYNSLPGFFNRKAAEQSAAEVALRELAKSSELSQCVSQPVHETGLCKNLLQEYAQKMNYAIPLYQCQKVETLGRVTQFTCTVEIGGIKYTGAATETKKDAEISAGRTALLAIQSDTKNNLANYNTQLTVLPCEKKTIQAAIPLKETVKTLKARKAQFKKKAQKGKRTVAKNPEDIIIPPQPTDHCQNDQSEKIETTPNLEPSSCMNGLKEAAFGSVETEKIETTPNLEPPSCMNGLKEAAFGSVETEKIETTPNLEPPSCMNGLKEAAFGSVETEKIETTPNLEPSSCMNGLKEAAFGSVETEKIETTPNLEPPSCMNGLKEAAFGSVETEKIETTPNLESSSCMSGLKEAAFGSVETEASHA
The experiment in a line: split reporter; BiFC in Arabidopsis protoplasts, data not shown.

For test [7], the target named is T5, HYL1 R162E, BiFC fusion (Arabidopsis thaliana) (UniProt O04492).
T5 sequence: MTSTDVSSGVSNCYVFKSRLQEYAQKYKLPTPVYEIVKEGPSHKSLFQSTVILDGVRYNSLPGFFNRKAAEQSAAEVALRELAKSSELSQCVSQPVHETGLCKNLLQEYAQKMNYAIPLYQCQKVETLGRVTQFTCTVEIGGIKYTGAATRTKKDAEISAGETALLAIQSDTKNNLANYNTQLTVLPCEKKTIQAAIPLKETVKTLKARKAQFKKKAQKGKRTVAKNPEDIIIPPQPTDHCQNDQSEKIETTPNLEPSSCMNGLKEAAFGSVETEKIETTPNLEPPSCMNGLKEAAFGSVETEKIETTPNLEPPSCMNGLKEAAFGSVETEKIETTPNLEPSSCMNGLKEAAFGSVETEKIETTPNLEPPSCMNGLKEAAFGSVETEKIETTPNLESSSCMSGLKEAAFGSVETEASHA
Described as above.

For test [8], the target named is T6, HYL1 K154E, BiFC fusion (Arabidopsis thaliana) (UniProt O04492).
T6 sequence: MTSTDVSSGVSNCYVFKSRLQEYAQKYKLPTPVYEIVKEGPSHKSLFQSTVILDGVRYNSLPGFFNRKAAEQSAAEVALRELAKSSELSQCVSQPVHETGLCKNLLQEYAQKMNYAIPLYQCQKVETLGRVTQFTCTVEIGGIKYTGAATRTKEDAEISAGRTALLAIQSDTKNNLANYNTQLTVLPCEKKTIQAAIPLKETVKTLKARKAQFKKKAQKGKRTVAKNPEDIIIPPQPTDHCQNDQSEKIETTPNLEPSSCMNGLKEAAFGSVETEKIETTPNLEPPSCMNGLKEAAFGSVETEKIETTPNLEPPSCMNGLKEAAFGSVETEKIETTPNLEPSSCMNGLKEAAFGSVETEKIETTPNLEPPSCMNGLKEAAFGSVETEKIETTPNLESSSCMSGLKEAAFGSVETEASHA
The description is as above.

Here are results for 3 molecules from paper PMC4231765.

These are yes or no findings as the source states them, for the method shown. For some assays here: In cells and extracts the contact can be indirect. Some entries that bind do so weakly or less than the wild type. Tags and fused reporters may be left off the sequences shown.

B1: HYPONASTIC LEAVES1 (HYL1), full-length, yeast two-hybrid fusion, O04492 1-419 (protein)
chain: MTSTDVSSGVSNCYVFKSRLQEYAQKYKLPTPVYEIVKEGPSHKSLFQSTVILDGVRYNSLPGFFNRKAAEQSAAEVALRELAKSSELSQCVSQPVHETGLCKNLLQEYAQKMNYAIPLYQCQKVETLGRVTQFTCTVEIGGIKYTGAATRTKKDAEISAGRTALLAIQSDTKNNLANYNTQLTVLPCEKKTIQAAIPLKETVKTLKARKAQFKKKAQKGKRTVAKNPEDIIIPPQPTDHCQNDQSEKIETTPNLEPSSCMNGLKEAAFGSVETEKIETTPNLEPPSCMNGLKEAAFGSVETEKIETTPNLEPPSCMNGLKEAAFGSVETEKIETTPNLEPSSCMNGLKEAAFGSVETEKIETTPNLEPPSCMNGLKEAAFGSVETEKIETTPNLESSSCMSGLKEAAFGSVETEASHA
On to B1, for which the binding result in test [1] and in test [2] was “binds” in each case.

B2: HYL1^L166E, BiFC fusion (protein, UniProt O04492 1-419)
chain: MTSTDVSSGVSNCYVFKSRLQEYAQKYKLPTPVYEIVKEGPSHKSLFQSTVILDGVRYNSLPGFFNRKAAEQSAAEVALRELAKSSELSQCVSQPVHETGLCKNLLQEYAQKMNYAIPLYQCQKVETLGRVTQFTCTVEIGGIKYTGAATRTKKDAEISAGRTALEAIQSDTKNNLANYNTQLTVLPCEKKTIQAAIPLKETVKTLKARKAQFKKKAQKGKRTVAKNPEDIIIPPQPTDHCQNDQSEKIETTPNLEPSSCMNGLKEAAFGSVETEKIETTPNLEPPSCMNGLKEAAFGSVETEKIETTPNLEPPSCMNGLKEAAFGSVETEKIETTPNLEPSSCMNGLKEAAFGSVETEKIETTPNLEPPSCMNGLKEAAFGSVETEKIETTPNLESSSCMSGLKEAAFGSVETEASHA
In the case of B2, in test [3], the binding entry is “binds”.

B3: SE, BiFC fusion (protein, UniProt Q9ZVD0 1-720)
chain: MADVNLPPSDSVDNRLPEKSTSSSPPPPPPSSSLPQQEQEQDQQQLPLRRERDSRERRDERDIERPPPNRRERDRSPLPPPRRDYKRRPSLSPPPPYRDRRHSPPQRRSPPQKRYRRDDNGYDGRRGSPRGGYGPPDRRFGYDHGGGYDREMGGRPGYGDERPHGRFMGRYQDWEGGRGGYGDASNSGNPQRDGLMSYKQFIQELEDDILPSEAERRYQEYKSEYITTQKRAFFNTHKEEDWLKNKYHPTNLLSVIERRNDLAQKVAKDFLLDLQSGTLDLGPAVTALNKSGRTSEPNSEDEAAGVGKRKRHGMGGAKENELLSAAPKAPSFTSDPKRILTDVEQTQALVRKLDSEKKIEENVLQGSETEKSGREKLHSGSTGPVVIIRGLTSVKGLEGVELLDTLVTYLWRVHGLDYYGKVETNEAKGLRHVRAEGKVSDAKGDENESKFDSHWQERLKGQDPLEVMAAKEKIDAAATEALDPHVRKIRDEKYGWKYGCGAKGCTKLFHAAEFVYKHLKLKHTELVTELTTKVREELYFQNYMNDPNAPGGQPATQQSGPRDRPIRRKPSMENRLRDDRGGRRERDGRANGNDRNDRSEDQQRGDNDGGNPGEVGYDAFGGQGGVHVPPFLSDINPPPMLMPVPGAGPLGPFVPAPPEVAMQMFRDPSGPNPPFEGSGRGGPAPFLLSPAFRQDPRRLRSYQDLDAPEEEVTVIDYRSL
B3: the binding result in test [4], in test [5], in test [6], in test [7] and in test [8] was “binds” throughout.
